# This is one part of the list. Further columns of the screen follow, without active or inactive calls. The list favours compounds with an active or inconclusive main result. Potencies come from curve fits of mixed quality, noted in brackets.
# Experiment: qHTS Assay to Find Inhibitors of Chronic Active B-Cell Receptor Signaling
# Conditions: ABC-DLBCL IkBa-CBG/CBR reporter, luminescence ratio (green luciferase fused to IkBa over red control in TMD8 lymphoma cells), 4 h
# Summary of the method: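 Concentration-response series (up to 46 uM) were applied to TMD8 dual-reporter cells for 4 h at 37C with doxycycline. Green/red ratio, after filter-overlap correction, defined %Activity; red signal alone was normalised to basal cells and zero luminescence.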
# [1] = measured here: CBR red luminescence, cell number
# [2] = measured here: IkBa-CBG green luminescence
SMILES,AC50 [1],AC50 [2]
CC(=O)Nc1ccccc1C(=O)C(=O)Nc1cccc(Br)c1,"0.794 µM [rising, full curve, poor fit]",
O=C(O)c1ccc(N/N=C2/CCSc3ccc(F)cc32)cc1,"0.0891 µM [falling, full curve, poor fit]",
CC1=CS(=O)(=O)CC1Sc1nc2ccccc2[nH]1 (stereo unspecified),"2.31 µM [rising, single point]",
COc1ccc(/C=C2\SC(=S)N(C(Cc3ccccc3)C(=O)O)C2=O)cc1 (stereo unspecified),"3.98 µM [falling, full curve]",
Clc1ccc(-n2nnc(-c3cccnc3Cl)n2)cc1Cl,"15.8 µM [falling, single point]",
Cc1cnc(NC(=O)CSc2nnc(-c3ccncc3)n2C2CCCCC2)s1,"2 µM [falling, partial curve, poor fit]",
CCOC(=O)c1ccc(COC(=O)CNC(=O)CNC(=O)Cc2ccccc2)cc1,"3.16 µM [rising, partial curve]",
COc1ccc(N2C(=S)NC(C)(C)CC2(C)c2ccc(OC(C)=O)cc2OC(C)=O)cc1 (stereo unspecified),"20 µM [falling, single point]",
Cc1nn(-c2ccccc2)c(C)c1/C=N/NC(=O)c1ccccc1O,"15.8 µM [falling, single point]",
O=C(c1cccs1)N1CCN(c2nc3c(F)cc(F)cc3s2)CC1,"0.58 µM [rising, full curve]",
O=C(CCc1nnc(-c2ccc3c(c2)OCO3)o1)NC(c1cccnc1)C(F)(F)F (stereo unspecified),"35.5 µM [falling, single point]",
O=C(N/N=C/c1cccc(OC(=O)c2ccc3c(c2)OCO3)c1)c1cncc(Br)c1,"29.1 µM [falling, single point]",
Cc1ccc(F)cc1NC(=O)CN1C(=O)NC2(CCCc3ccccc32)C1=O (stereo unspecified),"13 µM [falling, partial curve, poor fit]",
CCC(Sc1nnnn1-c1ccccc1)C(=O)Nc1nc2ccccc2s1 (stereo unspecified),"16.4 µM [falling, partial curve]",
COc1ccc(/C=N/NC(=O)c2ccccc2)cc1CN1CCN(c2ccc(F)cc2)CC1,"8.91 µM [falling, partial curve]",
Cc1cccc(NC(=O)CC2SC(=NC3CCCCC3)NC2=O)c1 (stereo unspecified),"29.1 µM [falling, partial curve, poor fit]",
O=c1[nH]c2ccc(NCc3ccccc3OCc3ccc(Cl)cc3)cc2[nH]1,,"15.8 µM [falling, partial curve, poor fit]"
CC(C)(CNC(=O)c1ccc(Br)o1)N1CCOCC1,"3.98 µM [rising, partial curve, poor fit]",
CCOC(=O)CNC(=O)c1sc(NC(=O)/C=C/c2ccccc2)nc1C,"8.91 µM [falling, partial curve, poor fit]",
COc1cccc(-n2nnc3c(=O)n(CC(=O)Nc4ccc(C)cc4)cnc32)c1,"11.2 µM [rising, partial curve, poor fit]",

# Arranged by molar mass (ascending): some entries from above.
SMILES,AC50 [1],AC50 [2]
CC(C)(CNC(=O)c1ccc(Br)o1)N1CCOCC1,"3.98 µM [rising, partial curve, poor fit]",
Cc1cccc(NC(=O)CC2SC(=NC3CCCCC3)NC2=O)c1 (stereo unspecified),"29.1 µM [falling, partial curve, poor fit]",
CC(=O)Nc1ccccc1C(=O)C(=O)Nc1cccc(Br)c1,"0.794 µM [rising, full curve, poor fit]",
Cc1ccc(F)cc1NC(=O)CN1C(=O)NC2(CCCc3ccccc32)C1=O (stereo unspecified),"13 µM [falling, partial curve, poor fit]",
Cc1cnc(NC(=O)CSc2nnc(-c3ccncc3)n2C2CCCCC2)s1,"2 µM [falling, partial curve, poor fit]",
O=C(CCc1nnc(-c2ccc3c(c2)OCO3)o1)NC(c1cccnc1)C(F)(F)F (stereo unspecified),"35.5 µM [falling, single point]",
COc1ccc(/C=N/NC(=O)c2ccccc2)cc1CN1CCN(c2ccc(F)cc2)CC1,"8.91 µM [falling, partial curve]",
COc1ccc(N2C(=S)NC(C)(C)CC2(C)c2ccc(OC(C)=O)cc2OC(C)=O)cc1 (stereo unspecified),"20 µM [falling, single point]",

# (continued)

SMILES,AC50 [1],AC50 [2]
O=C(NNS(=O)(=O)c1ccccc1)c1cnn(-c2ccccc2)c1-n1cccc1,"11.2 µM [falling, partial curve, poor fit]",
CC(C)n1c2ccccc2c2cc([N+](=O)[O-])ccc21,"29.1 µM [rising, single point]",
CCOc1cccc2sc(NC(=O)c3ccc(Br)s3)nc12,"0.0092 µM [falling, full curve]","0.731 µM [rising, full curve, poor fit]"
Cc1ccccc1OCc1nnc(SCC(=O)Nc2ccc3c(c2)oc2ccccc23)n1C,"6.51 µM [falling, single point]",
Nc1cc(N)nc(SCC(=O)Nc2ccccc2)n1,"16.4 µM [rising, single point]",
CC(C)Oc1ccc(CNC(=O)Cn2c(=O)c3cccn3c3cccnc32)cc1,"14.1 µM [rising, single point]",
CC(=O)C1=C(C)NC(SCC(=O)c2ccccc2)=C(C#N)C1CC(C)C (stereo unspecified),"10.3 µM [rising, partial curve, poor fit]",
Cc1ccccc1NC(=O)/C(C#N)=C\c1cc(C)n(-c2ccc(C(=O)O)cc2)c1C,"3.55 µM [rising, partial curve, poor fit]",
COc1cccc(NC(=O)CSc2nccn(-c3ccc4c(c3)OCCO4)c2=O)c1,"29.1 µM [falling, partial curve, poor fit]",
Cc1c(CNCCc2ccc(Cl)cc2)c(C(=O)O)c(C)n1Cc1ccccc1,"6.31 µM [rising, partial curve, poor fit]",
O=C(Nc1ccsc1C(=O)O)c1ccccc1Cl,"35.5 µM [falling, single point]",
CS(=O)(=O)NCCSc1cc(C(F)(F)F)nc2ccccc12,"7.08 µM [rising, full curve, poor fit]",
CCOC(=O)c1cnc(-n2nc(C)cc2C)nc1Oc1ccc(C(=O)OC)cc1,"0.398 µM [rising, partial curve, poor fit]",
CCOC(=O)/C(C(=O)Nc1ccccc1Cl)=C1/NC(C)(C)Cc2ccccc21,"23.1 µM [rising, partial curve, poor fit]",
Cc1ccc2c(Cl)cc(Cl)c(OCC(=O)N3CCCC3)c2n1,"11.2 µM [rising, partial curve, poor fit]",
COc1ccccc1NC(=O)c1c(NCc2ccc(C)o2)sc2c1CCC(C)C2 (stereo unspecified),"35.5 µM [falling, single point]",
COc1ccc(-n2cc3ccc([N+](=O)[O-])cc3n2)cc1,"0.251 µM [rising, full curve, poor fit]",
CC(Oc1ccc(Cl)cc1)C(=O)NNC(=S)NC(=O)c1ccco1 (stereo unspecified),"20.6 µM [rising, single point]",
Cc1cccc(C(=O)N2CCN(c3ccc([N+](=O)[O-])c(N4CCOCC4)c3)CC2)c1,"12.6 µM [falling, partial curve, poor fit]",
COc1ccc(-c2nc3cc(NC(=O)Cc4ccc(OC)c(OC)c4)ccc3o2)cc1,"1.16 µM [rising, full curve]",

# From PubChem BioAssay AID493014 (National Center for Advancing Translational Sciences (NCATS), 2011)
